{"source": "patent US6899723B2", "about": "“Transcutaneous photodynamic treatment of targeted cells” (Light Sciences Corporation, priority 2001, dated 2005)", "test_system": "colon carcinoma tumor mass", "test": "Photodynamic therapy of a solid tumor in a patient with implanted LED light source probes", "format": "in vivo, human", "details": "following PDT and debridement", "from_the_text": "A patient in the terminal phase of recurrent malignant colon cancer having undergone chemotherapy and irradiation therapy, presented with a protruding colon carcinoma tumor mass of approximately 500 grams and approximately 13 cm in diameter, which extended through the patient's dermis. Due to the advanced state of the patient's disease and due to the highly vascularized nature of this tumor mass, resection was not feasible. Further, this large tumor mass presented a significant amount of pain and discomfort to the patient, as well as greatly impairing the patient's ability to lie flat.\nSix separate light source probes, each including a linear array of LEDs, were surgically implanted in this large human tumor using standard surgical procedures. A single dose of a photosensitizer agent (aminolevulinic acid (ALA) at 60 mg/kg) was provided by oral administration to the patient. Following a period of five hours to permit sufficient clearance of the photosensitizing agent from healthy tissues, light irradiation was administered. An intensity of about 25-30 mW of light from each light source probe (650 nm peak wavelength) was delivered to the tumor for 40 hours. […] The total fluence delivered to the tumor bed during this single extended duration treatment was in excess of 20,000 Joules. […]", "note": "For at least one compound, name, drawing or mass did not settle the structure.", "data": [{"smiles": "NCC(=O)CCC(=O)O", "note": "[ALA, aminolevulinic acid]", "values": [{"measurement": "patient quality of life", "value": "significant improvement"}]}]}
